# Measurements published in paper PMC9623174.
# No constants are given. Whether binding was seen depends on the method and setting. Binding can be weak; no strength is given.
# Target: ZeGL3 (pGBKT7-ZeGL3) (Zinnia elegans)
# Assay: two-hybrid; ZeMYB9 in pGADT7 (AD), ZeGL3 in pGBKT7 (BD); yeast strain Y2H Gold; growth on SD/-His-Leu-Trp medium at 30°C for 4 days
substance,measurement,value
ZeMYB9 (pGADT7-ZeMYB9) (from UniProt A0A977TEB2),binding,binds
